Measured values reported in patent US20250249038A1.
Results are given in words; binding and its absence hold for the method and conditions named. Some binding calls cover weakened binding; strength is not graded here.

The chains behind the UniProt entries cited, without tags or fusion partners. Residues count along the entry.
UniProt P40259, residues 29-159: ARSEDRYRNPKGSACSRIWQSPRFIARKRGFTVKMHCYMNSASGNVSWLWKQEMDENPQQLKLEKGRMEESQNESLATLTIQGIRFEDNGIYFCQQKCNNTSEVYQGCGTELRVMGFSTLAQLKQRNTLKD

B1: CD70 CAR (tCD27-CD30 HTM-CD28 cos-CD3Zeta) (protein)
chain: ATPAPKSCPERHYWAQGKLCCQMCEPGTFLVKDCDQHRKAAQCDPCIPGVSFSPDHHTRPHCESCRHCNSGLLVRNCTITANAECACRNGWQCRDKECTECDPLPAPASTSPTQSLLVDSQASKTLPIPTSAPVALSSTGKPVLDAGPVLFWVILVLVVVVGSSAFLLYCWVRSKRSRLLHSDYMNMTPRRPGPTRKHYQPYAPPRDFAAYRSRVKFSRSADAPAYQQGQNQLYNELNLGRREEYDVLDKRRGRDPEMGGKPRRKNPQEGLYNELQKDKMAEAYSEIGMKGERRRGKGHDGLYQGLSTATKDTYDALHMQALPPR
B2: CD79B CAR (SN8 scFv-CD30 HTM-CD28 cos-CD3Zeta) (protein)
chain: DIVLTQSPASLAVSLGQRATISCKASQSVDYDGDSFLNWYQQKPGQPPKLFIYAASNLESGIPARFSGSGSGTDFTLNIHPVEEEDAATYYCQQSNEDPLTFGAGTELELKRSGGGGSGGGGSGGGGSGGGGSEVQLQQSGAELMKPGASVKISCKATGYTFSSYWIEWVKQRPGHGLEWIGEILPGGGDTNYNEIFKGKATFTADTSSNTAYMQLSSLTSEDSAVYYCTRRVPVYFDYWGQGTSVTVSSAPASTSPTQSLLVDSQASKTLPIPTSAPVALSSTGKPVLDAGPVLFWVILVLVVVVGSSAFLLYCWVRSKRSRLLHSDYMNMTPRRPGPTRKHYQPYAPPRDFAAYRSRVKFSRSADAPAYQQGQNQLYNELNLGRREEYDVLDKRRGRDPEMGGKPRRKNPQEGLYNELQKDKMAEAYSEIGMKGERRRGKGHDGLYQGLSTATKDTYDALHMQALPPR

Legend:
[1] = target: T1, fluorochrome conjugated recombinant CD70 protein (UniProt P32970); assay: flow cytometry, fluorochrome conjugated recombinant CD70 protein staining of CAR-transduced primary human T cells
T1 sequence (fluorochrome conjugated (fluorochrome and site not stated), looked up): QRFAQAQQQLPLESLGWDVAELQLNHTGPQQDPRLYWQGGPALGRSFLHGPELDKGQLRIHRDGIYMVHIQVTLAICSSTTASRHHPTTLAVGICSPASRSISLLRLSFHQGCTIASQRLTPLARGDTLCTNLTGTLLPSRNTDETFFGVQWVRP

[2] = target: APC conjugated CD79B antigen (UniProt P40259); assay: flow cytometry, APC conjugated CD79B antigen staining of transfected 293T cells

Binder | binding [1] | binding [2]
B1 | binds | 
B2 |  | binds
